Taken from: PubChem BioAssay AID504744 (Drosophila RNAi Screening Center, 2011)
Aim: 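Find genes whose loss alters insulin-driven dAkt phosphorylation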 (primary screen). Cell system: Drosophila Kc167 cells. Reagents: long dsRNA against Drosophila genes, 250 ng dsRNA per well of a 384-well plate. Duration: 3 days of knock-down, then overnight serum-free starvation before stimulation. Conditions: bovine insulin at 387 nM for 10 minutes after 12 h without serum. Measurement: 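Per-well phospho-dAkt level from an in-cell fluorescent antibody stain, divided by a DNA-dye signal; log2 residuals turned into z-scores that take cell number into account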. Hit rule: 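Hit in the insulin screen when the two-replicate mean z-score is more extreme than plus or minus 2.5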.
The screen tested about 23,000 reagents; this is an unselected part of those that have a named target and a result. In the full data, 98 (0.43%) were called active. 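Only hit calls are given; the phospho-dAkt signals, z-scores and hit direction were not deposited.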 Names joined by + are all predicted targets of the reagent. Reagent sequences are not shown.

Against CG30274 [DRSC04171] the deposit lists inactive.
Depletion of CG6441 [DRSC02957] gave: inactive.
Knock-down of GCS2alpha [DRSC21036] gave: inactive.
Rab35 [DRSC20691] showed inactive.
CG12746 [DRSC12218] showed inactive.
Silencing of CG30103 [DRSC06894] came out at: inactive.
CG11076 [DRSC17197] scored inactive.
With knock-down of CG32773 (retired record) [DRSC17330], the screen gave inactive.
After knock-down of Synd [DRSC15116] the results were inactive.
With knock-down of bif [DRSC18901], the record shows inactive.
bif [DRSC20313] gave inactive.
Clamp [DRSC03718] gave inactive.
With knock-down of Clamp [DRSC21682], the record shows inactive.
Knock-down of Gr59b [DRSC04179] came out at: inactive.
InR [DRSC16717] gave active.
Knock-down of slf [DRSC00583] gave: inactive.
Against CG4198 [DRSC18354], the entry reads inactive.
With knock-down of betaCOP [DRSC20312], the screen gave inactive.
Depletion of Osi3 [DRSC12175] came out at: inactive.
CG34459 [DRSC06973] showed inactive.
For CG12860 [DRSC06200] the deposit lists inactive.
After knock-down of Cp7Fb [DRSC18034] the results were inactive.
CG9447 [DRSC05008] gave inactive.
swi2 [DRSC06457] gave inactive.
For Ctl2 [DRSC14423], the entry reads inactive.
Regnase-1 [DRSC14278] gave inactive.
Knock-down of Ip259 [DRSC03352] gave: inactive.
With knock-down of Cyp318a1 [DRSC19784] the results were inactive.
CG12446 [DRSC20618] showed inactive.
After knock-down of CG31178 [DRSC14590] the results were inactive.
Against jbug [DRSC03952], the entry reads inactive.
jbug [DRSC04114] scored inactive.
Against jbug [DRSC04167] the deposit lists inactive.
For jbug [DRSC04388] the deposit lists inactive.
CG3638 [DRSC18533] showed inactive.
CG32473 [DRSC14352] gave inactive.
With knock-down of CG32473 [DRSC16446], the screen gave inactive.
For CG12708 [DRSC19490], the entry reads inactive.
Depletion of CG13917 [DRSC08386] came out at: inactive.
With knock-down of CG17344 [DRSC02607], the screen gave inactive.
For Ykt6 [DRSC17970] the deposit lists inactive.
For CG32762 [DRSC18298], the entry reads inactive.
Against Gmd [DRSC03119], the entry reads inactive.
Knock-down of olf413 [DRSC11543] came out at: inactive.
For olf413 [DRSC11679], the values are inactive.
Silencing of olf413 [DRSC11721] gave: inactive.
Against olf413 [DRSC11833] the deposit lists inactive.
Depletion of CG7706 [DRSC16295] resulted in: inactive.
With knock-down of Spn43Ab [DRSC06781] the results were inactive.
Against Nedd8 [DRSC02092], the values are inactive.
After knock-down of Ublcp1 [DRSC14149], the record shows inactive.
After knock-down of CG4259 [DRSC00645] the results were inactive.
With knock-down of KP78a + KP78b [DRSC16721] the results were inactive.
Depletion of KP78a + KP78b [DRSC16722] came out at: inactive.
rg [DRSC17377] scored inactive.
Silencing of rg [DRSC17726] came out at: inactive.
Depletion of rg [DRSC18049] came out at: inactive.

Active calls, of those listed so far:
InR [DRSC16717] — outcome = active
